{"source": "PubChem BioAssay AID504784 (Drosophila RNAi Screening Center, 2011)", "aim": "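Fly genes whose silencing alters how much lipid cells keep in droplets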 (primary screen)", "system": "Drosophila Kc167 embryonic cells", "knock-down reagent": "long dsRNA against Drosophila genes, about 250 ng dsRNA per well", "duration": "4 days", "treatment": "cells fed 400 µM oleic acid bound to BSA", "detection": "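Cells imaged and segmented; ratio of lipid droplet area to nuclear area, log-transformed, then normalised as a B-score over the screen; higher means more stored lipid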", "reading the numbers": "droplet/nuclear area B-score: higher = more stored lipid (overstorage)", "note": "In all, the deposit lists about 17,000 reagents; shown is a random part of those with a known target gene and a result. 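Each column is one replicate's B-score; the combined score over replicates was not deposited, so single values may mislead.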 Reagents against one gene are numbered here. Names joined by + are all predicted targets of the reagent. No sequences are given here."}
{"gene": "Wsck", "reagent no.": 1, "droplet/nuclear area B-score, replicate 1": 0.65, "droplet/nuclear area B-score, replicate 2": -0.0353}
{"gene": "CG2906", "reagent no.": 1, "droplet/nuclear area B-score, replicate 1": 0.0186, "droplet/nuclear area B-score, replicate 2": 2.01}
{"gene": "CG14325", "reagent no.": 1, "droplet/nuclear area B-score, replicate 1": 2.34, "droplet/nuclear area B-score, replicate 2": 1.63}
{"gene": "CG13384", "reagent no.": 1, "droplet/nuclear area B-score, replicate 1": 0.13, "droplet/nuclear area B-score, replicate 2": -0.528}
{"gene": "CG32563", "reagent no.": 1, "droplet/nuclear area B-score, replicate 1": -0.535, "droplet/nuclear area B-score, replicate 2": 1.53}
{"gene": "Ski6", "reagent no.": 1, "droplet/nuclear area B-score, replicate 1": 0.00647, "droplet/nuclear area B-score, replicate 2": 0.0427}
{"gene": "CG12164", "reagent no.": 1, "droplet/nuclear area B-score, replicate 1": -0.134, "droplet/nuclear area B-score, replicate 2": 0.601}
{"gene": "CG12164", "reagent no.": 2, "droplet/nuclear area B-score, replicate 1": 0.383, "droplet/nuclear area B-score, replicate 2": -2.51}
{"gene": "snRNA:U1:95Cc + snRNA:U1:95Cb", "reagent no.": 1, "droplet/nuclear area B-score, replicate 1": -0.372, "droplet/nuclear area B-score, replicate 2": 2.47}
{"gene": "bw", "reagent no.": 1, "droplet/nuclear area B-score, replicate 1": 0.184, "droplet/nuclear area B-score, replicate 2": -1.5}
{"gene": "bw", "reagent no.": 2, "droplet/nuclear area B-score, replicate 1": 0.777, "droplet/nuclear area B-score, replicate 2": 2.51}
{"gene": "Cep290", "reagent no.": 1, "droplet/nuclear area B-score, replicate 1": -1.56, "droplet/nuclear area B-score, replicate 2": -1.13}
{"gene": "CG12278", "reagent no.": 1, "droplet/nuclear area B-score, replicate 1": 1.89, "droplet/nuclear area B-score, replicate 2": 4.81}
{"gene": "Spn53F", "reagent no.": 1, "droplet/nuclear area B-score, replicate 1": 0.766, "droplet/nuclear area B-score, replicate 2": -0.678}
{"gene": "rsh", "reagent no.": 1, "droplet/nuclear area B-score, replicate 1": -0.0123, "droplet/nuclear area B-score, replicate 2": 0.374, "droplet/nuclear area B-score, replicate 3": 0.943}
{"gene": "enc", "reagent no.": 1, "droplet/nuclear area B-score, replicate 1": 1.24, "droplet/nuclear area B-score, replicate 2": 0.125}
{"gene": "QC", "reagent no.": 1, "droplet/nuclear area B-score, replicate 1": 0.0196, "droplet/nuclear area B-score, replicate 2": -0.943}
{"gene": "CG10063", "reagent no.": 1, "droplet/nuclear area B-score, replicate 1": 0.795, "droplet/nuclear area B-score, replicate 2": -0.548}
{"gene": "rhi", "reagent no.": 1, "droplet/nuclear area B-score, replicate 1": 0.157, "droplet/nuclear area B-score, replicate 2": 0.759}
{"gene": "5PtaseI", "reagent no.": 1, "droplet/nuclear area B-score, replicate 1": 0.424, "droplet/nuclear area B-score, replicate 2": 0.0247}
{"gene": "5PtaseI", "reagent no.": 2, "droplet/nuclear area B-score, replicate 1": -0.235, "droplet/nuclear area B-score, replicate 2": -1.03}
{"gene": "nac", "reagent no.": 1, "droplet/nuclear area B-score, replicate 1": -1.09, "droplet/nuclear area B-score, replicate 2": -0.56}
{"gene": "Cul2", "reagent no.": 1, "droplet/nuclear area B-score, replicate 2": 0.519}
{"gene": "CG32241", "reagent no.": 1, "droplet/nuclear area B-score, replicate 1": 0.109, "droplet/nuclear area B-score, replicate 2": -0.844, "droplet/nuclear area B-score, replicate 3": 1.37}
{"gene": "CG32241", "reagent no.": 2, "droplet/nuclear area B-score, replicate 1": -0.472, "droplet/nuclear area B-score, replicate 2": -0.403}
{"gene": "CG17648", "reagent no.": 1, "droplet/nuclear area B-score, replicate 1": 0.26, "droplet/nuclear area B-score, replicate 2": -0.392}
{"gene": "GstE13", "reagent no.": 1, "droplet/nuclear area B-score, replicate 1": -1.22, "droplet/nuclear area B-score, replicate 2": -0.719}
{"gene": "hrm", "reagent no.": 1, "droplet/nuclear area B-score, replicate 1": -0.223, "droplet/nuclear area B-score, replicate 2": -0.184}
{"gene": "NAAT1", "reagent no.": 1, "droplet/nuclear area B-score, replicate 1": 0.947, "droplet/nuclear area B-score, replicate 2": -0.0659}
{"gene": "DptB", "reagent no.": 1, "droplet/nuclear area B-score, replicate 1": -2.83, "droplet/nuclear area B-score, replicate 2": -0.186}
{"gene": "Gr47a", "reagent no.": 1, "droplet/nuclear area B-score, replicate 1": -0.646, "droplet/nuclear area B-score, replicate 2": -0.175}
{"gene": "Fkbp59", "reagent no.": 1, "droplet/nuclear area B-score, replicate 1": 0.721, "droplet/nuclear area B-score, replicate 2": -2.04}
{"gene": "CG10560", "reagent no.": 1, "droplet/nuclear area B-score, replicate 1": -2.51, "droplet/nuclear area B-score, replicate 2": -0.817}
{"gene": "Atg4b", "reagent no.": 1, "droplet/nuclear area B-score, replicate 1": -0.855, "droplet/nuclear area B-score, replicate 2": 1.05}
{"gene": "Coq3", "reagent no.": 1, "droplet/nuclear area B-score, replicate 1": -0.484, "droplet/nuclear area B-score, replicate 2": -2.81}
{"gene": "peng", "reagent no.": 1, "droplet/nuclear area B-score, replicate 1": 1.07, "droplet/nuclear area B-score, replicate 2": 0.0947}
{"gene": "CG31637", "reagent no.": 1, "droplet/nuclear area B-score, replicate 1": 1.08, "droplet/nuclear area B-score, replicate 2": 0}
{"gene": "CG31637", "reagent no.": 2, "droplet/nuclear area B-score, replicate 1": -0.0702, "droplet/nuclear area B-score, replicate 2": 0.848}
{"gene": "asl", "reagent no.": 1, "droplet/nuclear area B-score, replicate 1": -0.215, "droplet/nuclear area B-score, replicate 2": -2.97}
{"gene": "CG12914", "reagent no.": 1, "droplet/nuclear area B-score, replicate 1": -0.00267, "droplet/nuclear area B-score, replicate 2": -0.442}

Look-ups from above.
Value of DptB in “droplet/nuclear area B-score, replicate 1”: -2.83
Result of Wsck in “droplet/nuclear area B-score, replicate 1”: 0.65
For “droplet/nuclear area B-score, replicate 1”, CG10560 shows -2.51
